Experiment [1] addresses T1, WOX5-mV(N) (Arabidopsis thaliana) (UniProt Q8H1D2).
T1 sequence: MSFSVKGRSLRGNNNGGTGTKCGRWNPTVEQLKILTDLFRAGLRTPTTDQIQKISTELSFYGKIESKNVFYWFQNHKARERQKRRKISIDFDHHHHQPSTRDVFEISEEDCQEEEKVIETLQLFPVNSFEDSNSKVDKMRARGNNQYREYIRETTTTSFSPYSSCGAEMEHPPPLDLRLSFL
In words: split reporter; reconstitution of mVenus fluorescence from mV(N) and mV(C) fusions co-expressed in N. benthamiana epidermal leaf cells, used as donor for FRET-FLIM.

Amino acid sequences for entries named in this document (tags omitted). A change or cut given only in a name is not applied to a line headed by its entry.
UniProt Q9LN63: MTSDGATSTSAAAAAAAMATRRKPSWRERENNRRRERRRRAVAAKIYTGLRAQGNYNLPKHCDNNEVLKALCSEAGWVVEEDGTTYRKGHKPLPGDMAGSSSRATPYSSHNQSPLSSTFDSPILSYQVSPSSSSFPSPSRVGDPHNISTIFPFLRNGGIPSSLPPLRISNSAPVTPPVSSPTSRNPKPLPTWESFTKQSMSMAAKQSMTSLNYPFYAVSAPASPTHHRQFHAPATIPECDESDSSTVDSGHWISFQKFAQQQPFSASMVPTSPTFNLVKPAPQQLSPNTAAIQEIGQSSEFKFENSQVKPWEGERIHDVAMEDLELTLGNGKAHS
UniProt Q52QU2: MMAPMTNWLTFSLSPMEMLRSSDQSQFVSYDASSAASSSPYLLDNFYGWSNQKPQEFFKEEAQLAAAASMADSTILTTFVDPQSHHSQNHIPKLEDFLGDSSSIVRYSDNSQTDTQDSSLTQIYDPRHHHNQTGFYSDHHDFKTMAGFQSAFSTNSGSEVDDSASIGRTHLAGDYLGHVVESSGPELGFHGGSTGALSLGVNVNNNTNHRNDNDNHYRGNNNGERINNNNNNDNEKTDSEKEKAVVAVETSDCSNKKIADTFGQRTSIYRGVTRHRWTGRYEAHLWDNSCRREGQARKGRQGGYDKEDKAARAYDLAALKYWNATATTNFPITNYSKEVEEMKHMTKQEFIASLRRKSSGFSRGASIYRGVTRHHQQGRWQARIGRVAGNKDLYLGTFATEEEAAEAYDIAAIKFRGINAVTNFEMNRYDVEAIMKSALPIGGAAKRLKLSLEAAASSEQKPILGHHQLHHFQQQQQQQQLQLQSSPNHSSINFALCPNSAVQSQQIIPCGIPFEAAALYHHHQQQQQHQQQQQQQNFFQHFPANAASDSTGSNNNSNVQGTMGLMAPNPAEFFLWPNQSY
UniProt Q9ZNS0: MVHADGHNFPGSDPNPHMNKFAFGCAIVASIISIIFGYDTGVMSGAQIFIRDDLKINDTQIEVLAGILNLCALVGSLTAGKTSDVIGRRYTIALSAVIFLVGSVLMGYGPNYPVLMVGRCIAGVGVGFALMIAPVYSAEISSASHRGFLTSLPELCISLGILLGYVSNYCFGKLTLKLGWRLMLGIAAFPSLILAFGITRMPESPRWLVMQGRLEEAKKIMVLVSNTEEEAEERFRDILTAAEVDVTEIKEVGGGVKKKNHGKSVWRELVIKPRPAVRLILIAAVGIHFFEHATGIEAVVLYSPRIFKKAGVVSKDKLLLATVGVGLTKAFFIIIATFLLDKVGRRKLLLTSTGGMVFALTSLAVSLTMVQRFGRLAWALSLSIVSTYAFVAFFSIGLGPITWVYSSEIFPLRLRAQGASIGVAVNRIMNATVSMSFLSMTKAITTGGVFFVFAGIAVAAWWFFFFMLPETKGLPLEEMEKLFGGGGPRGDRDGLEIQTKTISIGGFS

Experiment [2] has as its target T2, BRAVO-mV(N) (Arabidopsis thaliana) (UniProt Q6R053).
T2 sequence: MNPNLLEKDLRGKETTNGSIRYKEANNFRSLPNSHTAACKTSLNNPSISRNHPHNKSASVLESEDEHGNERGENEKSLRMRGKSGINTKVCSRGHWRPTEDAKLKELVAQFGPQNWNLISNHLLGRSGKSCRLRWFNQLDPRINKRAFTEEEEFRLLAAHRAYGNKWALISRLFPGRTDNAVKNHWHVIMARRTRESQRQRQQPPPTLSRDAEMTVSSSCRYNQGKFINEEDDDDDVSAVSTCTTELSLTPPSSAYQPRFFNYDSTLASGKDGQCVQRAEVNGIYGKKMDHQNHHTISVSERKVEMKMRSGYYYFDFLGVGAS
The experiment is described as above.

Experiment [3] has as its target T3, TPL-mVenus (Arabidopsis thaliana, UniProt Q94AI7 1-1131).
T3 construct: TOPLESS (TPL) of Arabidopsis thaliana; the CDS amplified from cDNA; FRET donor; source: N. benthamiana abaxial epidermal leaf cells, transiently expressed (β-estradiol inducible), in cells
T3 sequence (looked up): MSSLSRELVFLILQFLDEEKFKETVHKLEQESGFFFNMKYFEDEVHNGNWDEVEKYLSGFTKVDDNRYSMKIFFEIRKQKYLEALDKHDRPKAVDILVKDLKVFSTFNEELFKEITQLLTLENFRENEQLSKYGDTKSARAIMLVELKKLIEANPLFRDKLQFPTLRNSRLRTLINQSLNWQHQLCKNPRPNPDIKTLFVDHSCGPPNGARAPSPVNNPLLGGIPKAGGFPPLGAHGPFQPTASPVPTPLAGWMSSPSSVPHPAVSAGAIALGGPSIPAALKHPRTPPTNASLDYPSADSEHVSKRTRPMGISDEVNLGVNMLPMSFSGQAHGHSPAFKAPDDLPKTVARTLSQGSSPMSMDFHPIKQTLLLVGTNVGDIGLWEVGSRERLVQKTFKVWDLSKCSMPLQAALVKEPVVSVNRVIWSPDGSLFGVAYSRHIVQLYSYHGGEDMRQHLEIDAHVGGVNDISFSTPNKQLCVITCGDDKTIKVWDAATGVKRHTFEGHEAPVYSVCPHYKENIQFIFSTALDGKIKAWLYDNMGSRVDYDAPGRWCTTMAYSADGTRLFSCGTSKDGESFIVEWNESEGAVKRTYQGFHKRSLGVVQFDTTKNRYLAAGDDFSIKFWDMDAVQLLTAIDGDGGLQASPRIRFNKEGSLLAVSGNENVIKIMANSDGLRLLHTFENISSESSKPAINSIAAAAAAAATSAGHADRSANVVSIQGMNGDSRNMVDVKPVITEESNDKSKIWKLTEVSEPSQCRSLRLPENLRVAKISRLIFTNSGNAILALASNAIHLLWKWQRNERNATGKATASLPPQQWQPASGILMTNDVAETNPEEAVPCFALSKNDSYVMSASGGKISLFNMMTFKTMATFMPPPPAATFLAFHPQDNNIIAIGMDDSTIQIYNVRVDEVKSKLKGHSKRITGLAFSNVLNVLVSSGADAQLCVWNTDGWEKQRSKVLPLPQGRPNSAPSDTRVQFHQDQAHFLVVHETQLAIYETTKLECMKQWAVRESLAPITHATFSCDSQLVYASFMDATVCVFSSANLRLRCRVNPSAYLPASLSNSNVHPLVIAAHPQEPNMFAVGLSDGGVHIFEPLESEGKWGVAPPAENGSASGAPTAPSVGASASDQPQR
Put plainly: FRET or BRET; FRET-FLIM in nuclei of transiently expressing N. benthamiana epidermal leaf cells; mVenus fusion as donor, mCherry fusion as acceptor; 'binding' [%] is the amplitude of the FRET component (number of donor molecules undergoing FRET); binding cutoff 10%; a binding not significantly different from the negative control (mCherry-NLS) is regarded as no interaction.

The target in experiment [4] is BES1D-mVenus (Arabidopsis thaliana) (UniProt Q9LN63). The description is as above.

No constants are given. Whether binding was seen depends on the method and setting. Binding seen in cells or lysates may run through a third protein. For some of these results: A result given as binding can be weak or reduced; the word gives no strength.

With PLT3-mV(C) (from UniProt Q52QU2), the binding result in experiment [1] and in experiment [2] was “binds” each time.
As for PLT3ΔPrD-mCherry (from UniProt Q9ZNS0), the binding result in experiment [3] and in experiment [4] was “no binding” throughout.

The values are drawn from article PMC12069552, “Root stem cell homeostasis in Arabidopsis involves cell-type specific transcription factor complexes” (EMBO Reports, 2025).
